Values from PubChem BioAssay AID1053208 (Peter MacCallum Cancer Centre, 2014).

Purpose: 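Genes whose silencing cuts survival of bone tumour cells only with doxorubicin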 (primary screen)
System: mouse osteosarcoma cells, early-passage culture from an engineered mouse model of fibroblastic bone tumour
Reagents: siRNA pool against mouse genes, 40 nM
Time to read-out: about 120 h (48 h before drug, then 72 h with drug)
Treatment: doxorubicin 100 nM for 72 h, roughly 30-40% inhibitory dose
Measured: 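Luminescent ATP signal taken as viability with or without 100 nM doxorubicin for 72 h; mean of two wells set against non-targeting siRNA and turned into robust z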
Scale: viability z-score with doxorubicin: higher = more viable cells under doxorubicin; viability z-score without drug: higher = more viable cells with knock-down alone
Hit rule: 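a pool counts as active when its viability z-score with doxorubicin is -2 or below and its z-score without drug lies between -2 and 2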
This is an unselected part of about 17,000 reagents. 788 of them (4.7%) count as active. 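Calls rest on z-score classes alone; an extra cut-off of viability at most 70% of control was not applied to them.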 Not all columns of the deposit are shown.

gene | PubChem SID | combined z-score class | viability z-score with doxorubicin | viability z-score without drug | Call
Ssu72 (Ssu72 RNA polymerase II CTD phosphatase homolog (yeast)) | SID152336458 | no change with or without drug | -0.22 | -0.17 | inactive
Blzf1 (basic leucine zipper nuclear factor 1) | SID152307069 | no change with or without drug | 1.24 | -0.67 | inactive
BC043934 (cDNA sequence BC043934) | SID152332343 | low cell count with and without drug | -2.59 | -2.53 | inactive
Or4a74 (olfactory receptor family 4 subfamily A member 74) | SID152327707 | no change with or without drug | 1.35 | 0.84 | inactive
Sarnp (SAP domain containing ribonucleoprotein) | SID152278057 | no change with or without drug | -0.9 | -0.67 | inactive
Sun2 (Sad1 and UNC84 domain containing 2) | SID152281489 | no change with or without drug | -0.22 | 0.34 | inactive
Pih1d2 (PIH1 domain containing 2) | SID152289669 | no change with or without drug | 0.9 | 1.18 | inactive
Or5d39 (olfactory receptor family 5 subfamily D member 39) | SID152281340 | no change with or without drug | -1.35 | -0.84 | inactive
Pphln1-ps1 (periphilin 1, pseudogene 1) | SID152343126 | no change with or without drug | 1.46 | -0.17 | inactive
Diaph3 (diaphanous related formin 3) | SID152281130 | no change with or without drug | 0.45 | -1.01 | inactive
Cdc42ep5 (CDC42 effector protein 5) | SID152329106 | no change with or without drug | -0.22 | 0.51 | inactive
Slc14a2 | SID152263349 | no change with or without drug | 0.22 | -0.34 | inactive
Gm57858 (gene model 57858) | SID152268057 | no change with or without drug | -0.11 | 0.17 | inactive
Tmc5 (transmembrane channel-like gene family 5) | SID152266788 | no change with or without drug | 1.35 | 0.51 | inactive
Col9a2 (collagen, type IX, alpha 2) | SID152263343 | no change with or without drug | 0.56 | 0.17 | inactive
ZFP236 | SID152314024 | no change with or without drug | 0 | -0.67 | inactive
Tmem107 (transmembrane protein 107) | SID152301022 | no change with or without drug | 0 | 1.52 | inactive
Sfxn5 (sideroflexin 5) | SID152323936 | no change with or without drug | 0.56 | -0.51 | inactive
Stk32b (serine/threonine kinase 32B) | SID152270333 | no change with or without drug | 1.24 | -0.67 | inactive
Tnik (TRAF2 and NCK interacting kinase) | SID152273589 | no change with or without drug | 0.45 | 1.18 | inactive
Tacc3 (transforming, acidic coiled-coil containing protein 3) | SID152293097 | low cell count without drug only | -0.67 | -3.54 | inactive
Dusp4 (dual specificity phosphatase 4) | SID152284777 | no change with or without drug | 0.67 | -1.52 | inactive
Foxp2 (forkhead box P2) | SID152310718 | no change with or without drug | -0.11 | -0.51 | inactive
Tgfb1i1 (transforming growth factor beta 1 induced transcript 1) | SID152260407 | no change with or without drug | -0.9 | 0 | inactive
Aipl1 (aryl hydrocarbon receptor-interacting protein-like 1) | SID152305455 | no change with or without drug | -0.79 | 1.52 | inactive
Cntd1 (cyclin N-terminal domain containing 1) | SID152316031 | no change with or without drug | 1.46 | 0.51 | inactive
Akp3 (alkaline phosphatase 3, intestine, not Mn requiring) | SID152305129 | no change with or without drug | -0.11 | 1.35 | inactive
Zbtb1 (zinc finger and BTB domain containing 1) | SID152283345 | no change with or without drug | 0.67 | 0.51 | inactive
Dync1li1 (dynein cytoplasmic 1 light intermediate chain 1) | SID152331426 | no change with or without drug | -0.67 | 0.17 | inactive
Firrm (FIGNL1 interacting regulator of recombination and mitosis) | SID152330073 | no change with or without drug | 0 | 0.84 | inactive
Wdr11 (WD repeat domain 11) | SID152303484 | no change with or without drug | -0.45 | 0.34 | inactive
Pitx2 (paired-like homeodomain transcription factor 2) | SID152329770 | no change with or without drug | -1.24 | -0.84 | inactive
Kcnrg (potassium channel regulator) | SID152284299 | no change with or without drug | 0 | 0.17 | inactive
Vsir (V-set immunoregulatory receptor) | SID152259551 | no change with or without drug | 0 | -0.84 | inactive
Czib (CXXC motif containing zinc binding protein) | SID152262794 | no change with or without drug | -1.01 | 0.67 | inactive
Rab35 (RAB35, member RAS oncogene family) | SID152314620 | no change with or without drug | 0 | -0.17 | inactive
Rps6kl1 (ribosomal protein S6 kinase-like 1) | SID152295512 | no change with or without drug | 1.57 | 0.17 | inactive
Galnt6 (polypeptide N-acetylgalactosaminyltransferase 6) | SID152272030 | no change with or without drug | 0.45 | -0.17 | inactive
Or8k25 (olfactory receptor family 8 subfamily K member 25) | SID152282655 | low cell count with doxorubicin only | -3.37 | -0.51 | active
Or8k25 (olfactory receptor family 8 subfamily K member 25) | SID152282934 | no change with or without drug | -1.12 | -1.85 | inactive
Edc4 (enhancer of mRNA decapping 4) | SID152316712 | no change with or without drug | 0.11 | -0.17 | inactive
Gbp2 (guanylate binding protein 2) | SID152288159 | no change with or without drug | 0 | -1.85 | inactive
Dpep1 (dipeptidase 1) | SID152331615 | no change with or without drug | 1.46 | -0.17 | inactive
Dio1 (deiodinase, iodothyronine, type I) | SID152293882 | no change with or without drug | -0.56 | 0.84 | inactive
Ccr6 (C-C motif chemokine receptor 6) | SID152272617 | no change with or without drug | 1.46 | 0.51 | inactive
Alyref (Aly/REF export factor) | SID152280603 | low cell count with doxorubicin only | -2.02 | 0 | active
Slc20a2 | SID152328176 | no change with or without drug | -1.8 | 0.17 | inactive
Psmc6 (proteasome (prosome, macropain) 26S subunit, ATPase, 6) | SID152305692 | low cell count with and without drug | -7.87 | -6.91 | inactive
Acot5 (acyl-CoA thioesterase 5) | SID152321375 | no change with or without drug | -0.11 | 0.17 | inactive
Ankrd48 (ankyrin repeat domain 48) | SID152274065 | no change with or without drug | -0.22 | -0.17 | inactive

Reagents above with an active call (2):
gene | PubChem SID | combined z-score class | viability z-score with doxorubicin | viability z-score without drug | Call
Or8k25 (olfactory receptor family 8 subfamily K member 25) | SID152282655 | low cell count with doxorubicin only | -3.37 | -0.51 | active
Alyref (Aly/REF export factor) | SID152280603 | low cell count with doxorubicin only | -2.02 | 0 | active
